Data published in patent US20210380688A1 (SHENZHEN UNIVERSITY, published 2021).
No constants are given. Whether binding was seen depends on the method and setting. Some results given as binding are weak or reduced against the parent protein; the word gives no strength.

The chains behind the UniProt entries cited, without tags or fusion partners. Where a name states a change or a piece, a line headed by the entry shows the natural chain unless it says otherwise. A line that says so, or that is headed by a name, gives the form on record, which may keep a tag or linker. Residues count along the entry.
ROR2 extracellular protein (Q01974, residues 34-403): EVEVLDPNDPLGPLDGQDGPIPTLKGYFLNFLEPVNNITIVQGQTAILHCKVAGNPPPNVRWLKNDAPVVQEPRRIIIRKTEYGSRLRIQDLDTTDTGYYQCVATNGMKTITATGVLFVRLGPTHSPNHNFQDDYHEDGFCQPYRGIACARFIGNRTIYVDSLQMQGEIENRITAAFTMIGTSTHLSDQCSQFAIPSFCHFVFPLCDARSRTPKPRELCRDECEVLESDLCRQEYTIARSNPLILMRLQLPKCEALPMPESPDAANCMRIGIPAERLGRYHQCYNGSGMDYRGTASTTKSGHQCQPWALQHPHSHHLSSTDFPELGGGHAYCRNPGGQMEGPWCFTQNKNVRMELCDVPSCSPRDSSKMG
ROR2 mutant with the deletion of the d-S/T1 region, flag-tagged (B7) (Q01974, form named): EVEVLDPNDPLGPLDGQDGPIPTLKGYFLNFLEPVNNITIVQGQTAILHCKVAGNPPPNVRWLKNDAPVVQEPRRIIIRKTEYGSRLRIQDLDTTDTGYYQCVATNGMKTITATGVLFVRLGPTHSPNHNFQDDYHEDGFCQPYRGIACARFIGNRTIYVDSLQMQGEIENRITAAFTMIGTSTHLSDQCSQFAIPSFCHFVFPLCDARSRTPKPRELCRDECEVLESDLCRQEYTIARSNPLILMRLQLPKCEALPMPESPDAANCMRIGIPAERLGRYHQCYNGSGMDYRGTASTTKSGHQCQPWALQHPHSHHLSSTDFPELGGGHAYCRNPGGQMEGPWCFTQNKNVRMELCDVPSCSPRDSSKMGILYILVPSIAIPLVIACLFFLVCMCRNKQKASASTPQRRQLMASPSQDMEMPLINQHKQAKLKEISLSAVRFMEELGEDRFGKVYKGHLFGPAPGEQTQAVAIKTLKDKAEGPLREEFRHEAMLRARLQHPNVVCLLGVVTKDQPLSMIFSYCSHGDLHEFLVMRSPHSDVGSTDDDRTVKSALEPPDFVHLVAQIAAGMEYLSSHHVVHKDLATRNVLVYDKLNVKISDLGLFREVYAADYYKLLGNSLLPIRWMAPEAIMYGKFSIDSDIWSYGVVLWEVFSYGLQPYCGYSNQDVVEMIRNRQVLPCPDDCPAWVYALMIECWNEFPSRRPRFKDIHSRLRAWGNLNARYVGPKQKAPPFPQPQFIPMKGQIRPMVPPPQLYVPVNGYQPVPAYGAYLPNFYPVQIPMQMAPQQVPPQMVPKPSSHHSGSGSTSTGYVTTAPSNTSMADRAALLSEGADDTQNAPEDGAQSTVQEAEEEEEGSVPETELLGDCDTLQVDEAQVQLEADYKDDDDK
ROR2 mutant with the deletion of the d-CRD region, flag-tagged (B3) (Q01974, form named): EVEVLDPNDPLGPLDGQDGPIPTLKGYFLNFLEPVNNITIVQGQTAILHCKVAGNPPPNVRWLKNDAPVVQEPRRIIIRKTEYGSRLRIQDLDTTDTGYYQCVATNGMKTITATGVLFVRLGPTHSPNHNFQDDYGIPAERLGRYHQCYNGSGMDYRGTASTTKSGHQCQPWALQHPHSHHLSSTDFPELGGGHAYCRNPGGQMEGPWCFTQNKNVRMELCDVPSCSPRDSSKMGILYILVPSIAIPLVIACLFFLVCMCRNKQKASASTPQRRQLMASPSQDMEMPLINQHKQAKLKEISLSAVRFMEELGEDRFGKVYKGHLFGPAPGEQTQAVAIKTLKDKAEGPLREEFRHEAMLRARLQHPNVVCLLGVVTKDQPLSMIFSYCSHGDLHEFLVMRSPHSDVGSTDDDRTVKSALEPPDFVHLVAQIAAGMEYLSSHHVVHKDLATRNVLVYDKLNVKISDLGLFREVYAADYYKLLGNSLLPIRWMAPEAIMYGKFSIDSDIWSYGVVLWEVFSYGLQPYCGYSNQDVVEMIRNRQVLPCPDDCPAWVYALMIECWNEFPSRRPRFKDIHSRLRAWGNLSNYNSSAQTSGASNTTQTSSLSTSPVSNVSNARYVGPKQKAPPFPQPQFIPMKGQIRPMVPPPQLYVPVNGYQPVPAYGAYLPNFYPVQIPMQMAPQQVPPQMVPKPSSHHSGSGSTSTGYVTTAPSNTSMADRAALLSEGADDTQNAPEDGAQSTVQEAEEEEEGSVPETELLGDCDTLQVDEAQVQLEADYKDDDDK
ROR2 mutant with the three mutations Y641, 645, and 646F, flag-tagged (B8) (Q01974, form named): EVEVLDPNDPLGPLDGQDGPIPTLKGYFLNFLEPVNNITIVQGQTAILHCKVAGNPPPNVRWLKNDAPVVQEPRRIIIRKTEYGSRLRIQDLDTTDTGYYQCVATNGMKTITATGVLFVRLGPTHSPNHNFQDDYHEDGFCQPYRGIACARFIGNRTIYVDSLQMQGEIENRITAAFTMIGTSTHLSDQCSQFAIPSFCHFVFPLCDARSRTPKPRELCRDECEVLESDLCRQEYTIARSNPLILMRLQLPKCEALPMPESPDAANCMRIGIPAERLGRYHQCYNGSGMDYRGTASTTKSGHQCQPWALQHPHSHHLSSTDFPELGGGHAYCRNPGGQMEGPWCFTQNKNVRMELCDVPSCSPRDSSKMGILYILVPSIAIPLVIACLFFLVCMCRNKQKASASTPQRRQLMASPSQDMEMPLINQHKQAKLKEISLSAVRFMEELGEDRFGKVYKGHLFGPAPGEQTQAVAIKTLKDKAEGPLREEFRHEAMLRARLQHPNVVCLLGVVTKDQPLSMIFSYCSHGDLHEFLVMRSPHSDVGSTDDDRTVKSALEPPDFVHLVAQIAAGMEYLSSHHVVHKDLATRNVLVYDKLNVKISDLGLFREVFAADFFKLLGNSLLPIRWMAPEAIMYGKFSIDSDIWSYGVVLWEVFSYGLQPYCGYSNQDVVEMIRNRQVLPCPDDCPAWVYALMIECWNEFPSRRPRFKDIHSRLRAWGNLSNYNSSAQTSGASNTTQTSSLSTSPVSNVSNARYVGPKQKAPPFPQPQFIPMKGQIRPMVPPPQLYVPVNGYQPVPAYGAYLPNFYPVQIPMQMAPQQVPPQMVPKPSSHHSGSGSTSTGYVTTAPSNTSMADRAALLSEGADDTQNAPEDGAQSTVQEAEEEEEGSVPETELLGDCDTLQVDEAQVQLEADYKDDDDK
ROR2 mutant with the deletion of the d-Ig-like region, flag-tagged (B2) (Q01974, form named): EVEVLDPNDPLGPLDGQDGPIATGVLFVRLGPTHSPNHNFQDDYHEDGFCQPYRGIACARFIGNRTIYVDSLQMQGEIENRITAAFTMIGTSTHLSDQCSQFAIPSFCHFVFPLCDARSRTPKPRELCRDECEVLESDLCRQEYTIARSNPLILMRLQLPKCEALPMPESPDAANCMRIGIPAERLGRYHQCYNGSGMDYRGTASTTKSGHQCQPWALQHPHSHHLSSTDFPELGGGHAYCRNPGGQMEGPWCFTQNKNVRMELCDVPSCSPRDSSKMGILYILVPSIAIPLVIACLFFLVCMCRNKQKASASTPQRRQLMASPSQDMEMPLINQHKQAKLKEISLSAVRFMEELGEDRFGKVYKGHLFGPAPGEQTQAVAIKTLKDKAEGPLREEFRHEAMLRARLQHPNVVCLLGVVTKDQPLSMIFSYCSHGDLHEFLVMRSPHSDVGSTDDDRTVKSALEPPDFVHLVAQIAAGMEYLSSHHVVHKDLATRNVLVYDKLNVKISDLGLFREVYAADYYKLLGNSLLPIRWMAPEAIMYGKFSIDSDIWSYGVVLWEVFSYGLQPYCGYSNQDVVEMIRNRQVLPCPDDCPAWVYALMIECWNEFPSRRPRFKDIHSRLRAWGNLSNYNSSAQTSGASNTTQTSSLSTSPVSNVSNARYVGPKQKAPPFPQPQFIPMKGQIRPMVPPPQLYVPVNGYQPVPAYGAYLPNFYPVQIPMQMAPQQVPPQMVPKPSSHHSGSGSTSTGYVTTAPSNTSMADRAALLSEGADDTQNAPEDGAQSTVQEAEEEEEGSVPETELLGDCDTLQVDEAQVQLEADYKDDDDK
full length of the ROR2 protein (hROR2), flag-tagged (B1) (Q01974, form named): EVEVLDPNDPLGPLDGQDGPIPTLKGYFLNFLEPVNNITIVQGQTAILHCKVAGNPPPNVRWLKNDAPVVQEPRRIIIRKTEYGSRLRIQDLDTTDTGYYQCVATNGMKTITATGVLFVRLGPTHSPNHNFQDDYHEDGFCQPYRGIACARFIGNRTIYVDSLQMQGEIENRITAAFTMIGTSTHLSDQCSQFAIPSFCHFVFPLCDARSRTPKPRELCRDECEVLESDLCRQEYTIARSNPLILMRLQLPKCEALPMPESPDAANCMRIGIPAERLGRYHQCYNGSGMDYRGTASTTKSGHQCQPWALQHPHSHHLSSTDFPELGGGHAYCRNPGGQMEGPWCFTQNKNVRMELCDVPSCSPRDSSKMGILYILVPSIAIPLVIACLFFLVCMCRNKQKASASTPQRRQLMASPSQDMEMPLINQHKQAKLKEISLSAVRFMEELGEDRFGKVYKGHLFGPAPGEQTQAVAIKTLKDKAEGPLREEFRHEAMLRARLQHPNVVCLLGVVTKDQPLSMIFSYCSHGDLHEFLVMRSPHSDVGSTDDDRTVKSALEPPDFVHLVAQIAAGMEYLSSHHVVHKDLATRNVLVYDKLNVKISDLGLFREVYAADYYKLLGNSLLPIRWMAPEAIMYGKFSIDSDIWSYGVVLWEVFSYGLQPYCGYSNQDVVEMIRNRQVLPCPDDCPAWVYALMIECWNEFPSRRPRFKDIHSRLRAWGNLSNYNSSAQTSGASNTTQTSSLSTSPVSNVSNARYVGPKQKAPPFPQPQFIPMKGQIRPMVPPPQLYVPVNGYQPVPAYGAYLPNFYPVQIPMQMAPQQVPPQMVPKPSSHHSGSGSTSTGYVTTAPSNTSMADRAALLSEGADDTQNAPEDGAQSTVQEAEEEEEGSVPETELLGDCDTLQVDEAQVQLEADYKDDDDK
ROR2 mutant with the deletion of the d-Kinase region, flag-tagged (B5) (Q01974, form named): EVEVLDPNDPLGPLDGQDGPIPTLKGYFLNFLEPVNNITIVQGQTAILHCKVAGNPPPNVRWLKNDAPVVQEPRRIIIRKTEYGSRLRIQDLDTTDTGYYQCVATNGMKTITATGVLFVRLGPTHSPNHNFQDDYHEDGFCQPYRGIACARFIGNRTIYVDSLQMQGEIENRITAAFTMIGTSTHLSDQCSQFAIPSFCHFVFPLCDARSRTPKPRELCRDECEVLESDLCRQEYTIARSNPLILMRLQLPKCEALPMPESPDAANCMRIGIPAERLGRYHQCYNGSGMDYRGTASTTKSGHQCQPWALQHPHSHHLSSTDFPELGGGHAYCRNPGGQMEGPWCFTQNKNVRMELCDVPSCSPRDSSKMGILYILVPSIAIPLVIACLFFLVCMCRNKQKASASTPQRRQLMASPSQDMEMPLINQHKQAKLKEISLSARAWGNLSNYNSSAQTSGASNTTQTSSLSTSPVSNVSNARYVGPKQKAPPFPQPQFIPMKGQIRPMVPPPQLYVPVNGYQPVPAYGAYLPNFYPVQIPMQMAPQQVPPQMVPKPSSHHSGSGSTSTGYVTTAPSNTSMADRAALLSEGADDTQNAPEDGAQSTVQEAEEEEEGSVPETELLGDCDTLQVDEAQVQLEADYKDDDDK

Tests used:
ROR2 protein = ROR2 protein (UniProt Q01974); assay: ELISA, OD450 against Fab concentration
[1] = target: ROR2 mutant with the deletion of the d-S/T1 region, flag-tagged (B7) (human) (UniProt Q01974); assay: western blot of lysate of 293T cells transfected with B7
[2] = target: ROR2 mutant with the deletion of the d-CRD region, flag-tagged (B3) (human) (UniProt Q01974); assay: flow cytometry of 293T-R2-KO cells transfected with B3
[3] = target: ROR2 mutant with the three mutations Y641, 645, and 646F, flag-tagged (B8) (human) (UniProt Q01974); assay: western blot of lysate of 293T cells transfected with B8
[4] = target: ROR2 mutant with the deletion of the d-Ig-like region, flag-tagged (B2) (human) (UniProt Q01974); assay: flow cytometry of 293T-R2-KO cells transfected with B2
[5] = target: full length of the ROR2 protein (hROR2), flag-tagged (B1) (human) (UniProt Q01974); assay: western blot of lysate of 293T cells transfected with B1
[6] = target: ROR2 mutant with the deletion of the d-Kinase region, flag-tagged (B5) (human) (UniProt Q01974); assay: western blot of lysate of 293T cells transfected with B5
[7] = target: full length of the ROR2 protein (hROR2), flag-tagged (B1) (human) (UniProt Q01974); assay: immunoprecipitation and immunoblot, lysate of 293T cells overexpressing Flag-tagged ROR2
[8] = target: ROR2 mutant with the deletion of the d-CRD region, flag-tagged (B3) (human) (UniProt Q01974); assay: western blot of lysate of 293T cells transfected with B3
[9] = target: ROR2 mutant with the deletion of the d-Ig-like region, flag-tagged (B2) (human) (UniProt Q01974); assay: western blot of lysate of 293T cells transfected with B2
[10] = target: ROR2 extracellular protein (UniProt Q01974); assay: ELISA on plate coated with ROR2 extracellular protein, OD450
[11] = target: full length of the ROR2 protein (hROR2), flag-tagged (B1) (human) (UniProt Q01974); assay: immunoprecipitation, overexpressed Flag-tagged ROR2
[12] = target: full length of the ROR2 protein (hROR2), flag-tagged (B1) (human) (UniProt Q01974); assay: flow cytometry of 293T-R2-KO cells transfected with B1

Measured: binding

B1: B16 Fab antibody (Fab, V domains shown)
VH: QLQLQQSGPELVKPGASVRMSCKAAGYTFTSYLMHWVKQRPGQDLEWIGYINPYNDGTKYNEKFKDKATLTSDKSSSTVYMELSSLTSEDSAVYYCARSDVYYGVRFAYWGQGTLVTVSA
VL: DIVLTQSPAIMSASPGEKVTMTCSASSSVTYTYWYQQKPGSSPRLLIYDTSNLASGVPVRFSGSGSGTSYSLTISRMEAEDAATYYCQQWSSYPFTFGSGTKLEIK
binds: ROR2 protein

B2: B16 chimeric antibody (antibody, human IgG1, kappa, V domains shown)
VH: QLQLQQSGPELVKPGASVRMSCKAAGYTFTSYLMHWVKQRPGQDLEWIGYINPYNDGTKYNEKFKDKATLTSDKSSSTVYMELSSLTSEDSAVYYCARSDVYYGVRFAYWGQGTLVTVSA
VL: DIVLTQSPAIMSASPGEKVTMTCSASSSVTYTYWYQQKPGSSPRLLIYDTSNLASGVPVRFSGSGSGTSYSLTISRMEAEDAATYYCQQWSSYPFTFGSGTKLEIKR
notes: also called anti-ROR2 monoclonal antibody B16 chimeric antibody; B16 antibody
not listed: ROR2 protein
binds: all other assays above
